One compound from paper PMC9728307 (Journal of Microbiology and Biotechnology, 2020) can be followed below.

Some results are limits rather than exact numbers.

The experiment relates to SARS-CoV-2. The experiment is described as follows: microbe, parasite or virus in culture. The following applies: compounds from secondary screening. Type of experiment: cell-based.

A word on the IC50: it is the concentration that gives 50% inhibition. As to `CN1CC2c3ccccc3Oc3ccc(Cl)cc3C2C1` (centres unmarked) [Asenapine], the “Selectivity Index (SI)” value (CC50/IC50) is given as greater than 3.8. Under “Severe acute respiratory syndrome coronavirus 2, Vero, 24 h, Vero cells, MOI 2, 24 h post-infection, 0.08–50 μM, read-out: IC50 antiviral activity”, the IC50 came out at 13.3 µM.
